Assay results published in paper PMC10206803, “Structural insights into DNA recognition by the BEN domain of the transcription factor BANP”.
Positions count from the first letter of the chain named. The comparison behind a weaker result is the experiment's own reference, which may not be listed here. Protein sequences can lack the tags named with them.

Tests used:
BEND6 BEN K265A (human) = target: T1, BEND6 BEN K265A (human) (UniProt Q5SZJ8); assay: fluorescence polarization; conditions: FP: 20 mM Tris-HCl pH 7.5, 150 mM NaCl, 1 mM DTT, 0.01% Triton X-100, 40 nM DNA; recombinant protein; residues 170-271; protein details: His6 removed by TEV; label: 5' FAM
T1 sequence (looked up): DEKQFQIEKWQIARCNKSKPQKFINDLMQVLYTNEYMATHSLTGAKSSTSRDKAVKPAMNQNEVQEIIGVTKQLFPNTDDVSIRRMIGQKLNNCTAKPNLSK

BEND6 BEN R254A (human) = target: T2, BEND6 BEN R254A (human) (UniProt Q5SZJ8); assay: fluorescence polarization; conditions: FP: 20 mM Tris-HCl pH 7.5, 150 mM NaCl, 1 mM DTT, 0.01% Triton X-100, 40 nM DNA; recombinant protein; residues 170-271; protein details: His6 removed by TEV; label: 5' FAM
T2 sequence (looked up): T1 sequence (looked up) with R85A, A96K

BEND6 BEN N261A (human) = target: T3, BEND6 BEN N261A (human) (UniProt Q5SZJ8); assay: fluorescence polarization; conditions: FP: 20 mM Tris-HCl pH 7.5, 150 mM NaCl, 1 mM DTT, 0.01% Triton X-100, 40 nM DNA; recombinant protein; residues 170-271; protein details: His6 removed by TEV; label: 5' FAM
T3 sequence (looked up): T1 sequence (looked up) with N92A, A96K

BANP BEN S313A (human) = target: T4, BANP BEN S313A (human) (UniProt Q8N9N5); assay: ITC; conditions: ITC: 150 mM NaCl, 20 mM Tris-HCl pH 7.5, with or without DTT, 25 C, 50-90 uM protein in cell, 1 mM DNA in syringe; recombinant protein; residues 208-347; protein details: His6-SUMO removed by TEV
T4 sequence (looked up): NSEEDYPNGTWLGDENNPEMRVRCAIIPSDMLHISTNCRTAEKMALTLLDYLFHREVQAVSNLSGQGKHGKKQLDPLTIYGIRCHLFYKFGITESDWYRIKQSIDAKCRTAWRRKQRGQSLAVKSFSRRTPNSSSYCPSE

BANP BEN R316A (human) = target: T5, BANP BEN R316A (human) (UniProt Q8N9N5); assay: ITC; conditions: ITC: 150 mM NaCl, 20 mM Tris-HCl pH 7.5, with or without DTT, 25 C, 50-90 uM protein in cell, 1 mM DNA in syringe; recombinant protein; residues 208-347; protein details: His6-SUMO removed by TEV
T5 sequence (looked up): T4 sequence (looked up) with A106S, R109A

BANP BEN N269A (human) = target: T6, BANP BEN N269A (human) (UniProt Q8N9N5); assay: ITC; conditions: ITC: 150 mM NaCl, 20 mM Tris-HCl pH 7.5, with or without DTT, 25 C, 50-90 uM protein in cell, 1 mM DNA in syringe; recombinant protein; residues 208-347; protein details: His6-SUMO removed by TEV
T6 sequence (looked up): T4 sequence (looked up) with N62A, A106S

BANP BEN R320A (human) = target: T7, BANP BEN R320A (human) (UniProt Q8N9N5); assay: ITC; conditions: ITC: 150 mM NaCl, 20 mM Tris-HCl pH 7.5, with or without DTT, 25 C, 50-90 uM protein in cell, 1 mM DNA in syringe; recombinant protein; residues 208-347; protein details: His6-SUMO removed by TEV
T7 sequence (looked up): T4 sequence (looked up) with A106S, R113A

Measured: binding result

CTCTCGCGAGAG (double strand) [FAM-CGCG DNA]
binds more weakly: BEND6 BEN K265A (human) | BEND6 BEN R254A (human) | BEND6 BEN N261A (human)

CTCTCGCGAGAG (double strand) [CGCG DNA]
binds more weakly: BANP BEN S313A (human) | BANP BEN R316A (human) | BANP BEN N269A (human) | BANP BEN R320A (human)
